Measurements published in the supplement of paper PMC11732987, “Enantioselective OTUD7B fragment discovery through chemoproteomics screening and high-throughput optimisation” (Communications Chemistry, 2025).
The list shows a part of the results. The data scatter; read single values as rough.

Sequences of proteins named here, by UniProt entry; tags and fusion partners are left off. A change or cut given only in a name is not applied to a line headed by its entry.
UniProt O76080: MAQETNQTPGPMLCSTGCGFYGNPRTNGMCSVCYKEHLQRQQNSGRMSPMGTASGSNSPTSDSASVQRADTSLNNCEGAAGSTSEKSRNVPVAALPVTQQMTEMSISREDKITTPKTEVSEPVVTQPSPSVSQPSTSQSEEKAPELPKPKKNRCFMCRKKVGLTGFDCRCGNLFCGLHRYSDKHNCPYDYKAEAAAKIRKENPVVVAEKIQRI
UniProt Q14202: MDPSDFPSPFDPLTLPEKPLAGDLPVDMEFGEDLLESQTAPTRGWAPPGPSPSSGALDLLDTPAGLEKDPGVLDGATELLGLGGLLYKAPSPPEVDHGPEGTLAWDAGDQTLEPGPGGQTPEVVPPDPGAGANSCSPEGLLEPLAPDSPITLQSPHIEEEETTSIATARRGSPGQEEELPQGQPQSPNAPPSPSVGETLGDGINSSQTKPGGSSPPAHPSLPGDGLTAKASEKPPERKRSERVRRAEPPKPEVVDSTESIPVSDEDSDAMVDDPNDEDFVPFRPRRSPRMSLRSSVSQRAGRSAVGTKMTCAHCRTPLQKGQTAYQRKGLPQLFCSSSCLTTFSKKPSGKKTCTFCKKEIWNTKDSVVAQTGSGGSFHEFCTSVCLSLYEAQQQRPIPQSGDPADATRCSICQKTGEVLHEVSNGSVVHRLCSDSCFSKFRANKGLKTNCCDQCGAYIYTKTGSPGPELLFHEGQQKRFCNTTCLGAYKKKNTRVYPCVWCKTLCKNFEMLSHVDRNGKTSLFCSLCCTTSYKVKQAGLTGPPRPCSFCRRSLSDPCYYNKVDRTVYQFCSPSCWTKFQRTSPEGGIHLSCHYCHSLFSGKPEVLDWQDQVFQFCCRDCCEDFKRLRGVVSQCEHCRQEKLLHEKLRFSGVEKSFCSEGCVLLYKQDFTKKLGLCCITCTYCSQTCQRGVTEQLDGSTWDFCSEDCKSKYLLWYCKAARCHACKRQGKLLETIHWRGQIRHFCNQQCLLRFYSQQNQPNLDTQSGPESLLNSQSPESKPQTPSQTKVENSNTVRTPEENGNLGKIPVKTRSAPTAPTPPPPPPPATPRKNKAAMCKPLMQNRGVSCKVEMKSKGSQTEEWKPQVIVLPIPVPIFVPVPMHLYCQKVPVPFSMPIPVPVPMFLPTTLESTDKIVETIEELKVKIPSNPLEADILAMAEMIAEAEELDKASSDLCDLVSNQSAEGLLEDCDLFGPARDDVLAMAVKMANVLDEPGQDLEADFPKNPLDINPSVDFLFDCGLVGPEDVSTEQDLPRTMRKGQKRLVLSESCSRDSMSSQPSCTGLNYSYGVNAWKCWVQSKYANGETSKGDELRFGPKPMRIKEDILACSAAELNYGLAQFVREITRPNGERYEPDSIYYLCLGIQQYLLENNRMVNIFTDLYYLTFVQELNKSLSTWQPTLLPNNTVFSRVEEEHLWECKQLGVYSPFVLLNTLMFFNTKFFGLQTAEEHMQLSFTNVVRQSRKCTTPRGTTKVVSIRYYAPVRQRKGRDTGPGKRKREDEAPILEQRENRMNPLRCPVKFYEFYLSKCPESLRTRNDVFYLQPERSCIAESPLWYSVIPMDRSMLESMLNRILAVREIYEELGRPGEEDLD
UniProt Q5VUA4: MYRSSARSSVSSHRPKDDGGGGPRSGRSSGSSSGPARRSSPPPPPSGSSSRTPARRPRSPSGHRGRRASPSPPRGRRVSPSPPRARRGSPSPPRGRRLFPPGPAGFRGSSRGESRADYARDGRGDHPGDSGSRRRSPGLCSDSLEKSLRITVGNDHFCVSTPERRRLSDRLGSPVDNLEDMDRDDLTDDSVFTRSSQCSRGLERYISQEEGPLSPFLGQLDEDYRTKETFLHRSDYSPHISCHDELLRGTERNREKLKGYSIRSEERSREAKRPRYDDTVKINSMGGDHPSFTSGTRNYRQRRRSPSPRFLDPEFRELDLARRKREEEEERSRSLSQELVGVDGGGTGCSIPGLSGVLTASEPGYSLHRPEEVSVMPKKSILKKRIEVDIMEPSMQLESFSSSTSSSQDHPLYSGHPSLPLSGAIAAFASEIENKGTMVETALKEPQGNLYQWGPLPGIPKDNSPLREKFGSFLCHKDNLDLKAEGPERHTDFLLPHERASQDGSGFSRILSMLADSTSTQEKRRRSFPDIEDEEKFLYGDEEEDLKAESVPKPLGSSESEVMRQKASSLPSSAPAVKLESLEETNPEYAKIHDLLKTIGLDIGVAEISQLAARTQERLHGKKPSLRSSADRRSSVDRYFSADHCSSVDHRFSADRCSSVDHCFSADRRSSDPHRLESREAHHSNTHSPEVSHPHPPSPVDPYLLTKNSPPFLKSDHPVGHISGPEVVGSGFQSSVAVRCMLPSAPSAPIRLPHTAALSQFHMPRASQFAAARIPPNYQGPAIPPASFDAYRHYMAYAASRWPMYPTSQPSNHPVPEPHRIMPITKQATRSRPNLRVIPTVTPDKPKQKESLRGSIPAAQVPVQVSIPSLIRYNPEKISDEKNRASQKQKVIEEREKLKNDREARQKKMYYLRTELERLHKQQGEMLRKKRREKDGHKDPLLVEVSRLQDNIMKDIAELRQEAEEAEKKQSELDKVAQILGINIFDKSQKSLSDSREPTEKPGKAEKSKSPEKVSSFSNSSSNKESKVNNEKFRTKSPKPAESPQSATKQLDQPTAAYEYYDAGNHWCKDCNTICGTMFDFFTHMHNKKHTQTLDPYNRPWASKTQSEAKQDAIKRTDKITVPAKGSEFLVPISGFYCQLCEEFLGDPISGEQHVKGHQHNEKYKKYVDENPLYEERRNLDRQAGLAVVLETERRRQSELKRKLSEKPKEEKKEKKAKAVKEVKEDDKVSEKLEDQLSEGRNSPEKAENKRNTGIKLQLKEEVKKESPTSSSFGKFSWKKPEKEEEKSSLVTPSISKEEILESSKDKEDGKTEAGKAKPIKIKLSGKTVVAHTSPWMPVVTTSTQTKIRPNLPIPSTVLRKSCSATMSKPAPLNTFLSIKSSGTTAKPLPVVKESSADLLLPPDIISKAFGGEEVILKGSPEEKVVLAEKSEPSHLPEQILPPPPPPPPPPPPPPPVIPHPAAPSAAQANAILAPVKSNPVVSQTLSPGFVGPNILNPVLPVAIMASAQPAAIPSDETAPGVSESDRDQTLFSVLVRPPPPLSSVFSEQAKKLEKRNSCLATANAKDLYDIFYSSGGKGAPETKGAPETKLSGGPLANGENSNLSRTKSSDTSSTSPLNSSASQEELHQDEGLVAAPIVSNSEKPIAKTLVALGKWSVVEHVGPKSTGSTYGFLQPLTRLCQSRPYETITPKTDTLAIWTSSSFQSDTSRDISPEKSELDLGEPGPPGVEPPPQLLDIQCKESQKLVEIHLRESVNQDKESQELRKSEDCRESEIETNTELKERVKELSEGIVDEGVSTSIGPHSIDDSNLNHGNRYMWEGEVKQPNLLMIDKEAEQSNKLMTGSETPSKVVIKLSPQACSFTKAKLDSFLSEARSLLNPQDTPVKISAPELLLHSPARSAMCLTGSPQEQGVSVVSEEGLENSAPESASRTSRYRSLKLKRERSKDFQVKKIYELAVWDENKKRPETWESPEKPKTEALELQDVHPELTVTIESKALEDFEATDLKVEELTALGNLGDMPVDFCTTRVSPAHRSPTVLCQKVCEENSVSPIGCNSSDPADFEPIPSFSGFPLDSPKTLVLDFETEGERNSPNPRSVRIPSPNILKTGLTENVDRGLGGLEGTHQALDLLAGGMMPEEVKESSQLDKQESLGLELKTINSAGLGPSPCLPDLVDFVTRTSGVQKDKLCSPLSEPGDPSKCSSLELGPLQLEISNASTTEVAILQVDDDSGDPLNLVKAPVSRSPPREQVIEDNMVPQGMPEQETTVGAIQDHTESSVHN
UniProt Q5VZL5: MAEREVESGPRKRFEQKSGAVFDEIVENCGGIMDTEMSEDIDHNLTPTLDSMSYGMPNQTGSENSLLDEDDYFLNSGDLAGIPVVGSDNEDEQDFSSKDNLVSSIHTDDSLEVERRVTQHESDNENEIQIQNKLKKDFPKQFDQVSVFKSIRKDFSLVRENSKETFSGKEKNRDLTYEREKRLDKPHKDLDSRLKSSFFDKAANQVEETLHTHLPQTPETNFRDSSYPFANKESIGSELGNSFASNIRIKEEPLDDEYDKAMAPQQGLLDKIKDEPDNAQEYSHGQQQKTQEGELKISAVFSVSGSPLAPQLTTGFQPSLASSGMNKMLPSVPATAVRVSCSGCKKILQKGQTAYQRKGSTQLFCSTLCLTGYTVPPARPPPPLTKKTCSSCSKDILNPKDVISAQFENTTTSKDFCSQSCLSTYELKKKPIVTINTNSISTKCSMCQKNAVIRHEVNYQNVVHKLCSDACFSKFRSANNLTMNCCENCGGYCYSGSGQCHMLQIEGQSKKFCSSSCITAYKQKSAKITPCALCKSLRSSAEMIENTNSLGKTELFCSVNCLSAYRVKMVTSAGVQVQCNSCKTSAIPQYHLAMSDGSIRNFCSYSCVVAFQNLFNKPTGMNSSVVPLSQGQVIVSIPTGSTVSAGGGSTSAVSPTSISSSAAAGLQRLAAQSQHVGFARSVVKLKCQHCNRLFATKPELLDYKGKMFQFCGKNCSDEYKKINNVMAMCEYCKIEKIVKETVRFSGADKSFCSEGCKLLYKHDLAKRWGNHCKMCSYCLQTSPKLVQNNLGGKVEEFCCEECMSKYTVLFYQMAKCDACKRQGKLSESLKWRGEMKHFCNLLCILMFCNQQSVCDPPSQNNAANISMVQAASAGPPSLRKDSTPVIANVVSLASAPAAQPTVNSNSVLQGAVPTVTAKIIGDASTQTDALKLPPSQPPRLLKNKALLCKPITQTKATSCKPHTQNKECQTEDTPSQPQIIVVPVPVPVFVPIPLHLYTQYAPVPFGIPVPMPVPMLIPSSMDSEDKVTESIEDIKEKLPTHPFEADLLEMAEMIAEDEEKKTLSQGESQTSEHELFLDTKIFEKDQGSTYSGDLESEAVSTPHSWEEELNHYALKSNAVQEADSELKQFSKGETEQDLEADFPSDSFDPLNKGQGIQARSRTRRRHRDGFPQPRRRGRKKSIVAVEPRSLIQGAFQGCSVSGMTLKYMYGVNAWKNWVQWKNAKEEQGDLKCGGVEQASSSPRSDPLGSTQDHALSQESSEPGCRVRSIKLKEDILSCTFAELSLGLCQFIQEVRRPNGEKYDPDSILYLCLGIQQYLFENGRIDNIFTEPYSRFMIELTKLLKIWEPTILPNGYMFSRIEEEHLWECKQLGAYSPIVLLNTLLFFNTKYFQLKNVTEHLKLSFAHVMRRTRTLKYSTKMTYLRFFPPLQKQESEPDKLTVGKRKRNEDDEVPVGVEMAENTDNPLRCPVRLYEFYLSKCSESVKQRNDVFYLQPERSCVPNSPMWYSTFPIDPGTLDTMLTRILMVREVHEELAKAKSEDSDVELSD
UniProt Q86WB0: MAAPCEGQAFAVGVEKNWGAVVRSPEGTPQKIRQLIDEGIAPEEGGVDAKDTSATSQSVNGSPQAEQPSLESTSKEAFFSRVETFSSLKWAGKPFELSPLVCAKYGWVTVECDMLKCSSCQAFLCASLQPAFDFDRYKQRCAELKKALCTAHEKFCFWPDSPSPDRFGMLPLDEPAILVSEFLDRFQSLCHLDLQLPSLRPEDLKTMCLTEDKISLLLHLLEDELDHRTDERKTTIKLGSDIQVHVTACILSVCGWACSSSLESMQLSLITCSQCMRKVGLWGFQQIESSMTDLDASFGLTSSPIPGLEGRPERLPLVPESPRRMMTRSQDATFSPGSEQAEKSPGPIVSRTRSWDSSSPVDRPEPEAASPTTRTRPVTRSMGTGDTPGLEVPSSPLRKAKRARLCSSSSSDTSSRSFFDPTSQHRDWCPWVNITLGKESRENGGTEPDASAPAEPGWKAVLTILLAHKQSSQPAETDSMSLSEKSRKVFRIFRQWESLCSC
UniProt Q6NUN9: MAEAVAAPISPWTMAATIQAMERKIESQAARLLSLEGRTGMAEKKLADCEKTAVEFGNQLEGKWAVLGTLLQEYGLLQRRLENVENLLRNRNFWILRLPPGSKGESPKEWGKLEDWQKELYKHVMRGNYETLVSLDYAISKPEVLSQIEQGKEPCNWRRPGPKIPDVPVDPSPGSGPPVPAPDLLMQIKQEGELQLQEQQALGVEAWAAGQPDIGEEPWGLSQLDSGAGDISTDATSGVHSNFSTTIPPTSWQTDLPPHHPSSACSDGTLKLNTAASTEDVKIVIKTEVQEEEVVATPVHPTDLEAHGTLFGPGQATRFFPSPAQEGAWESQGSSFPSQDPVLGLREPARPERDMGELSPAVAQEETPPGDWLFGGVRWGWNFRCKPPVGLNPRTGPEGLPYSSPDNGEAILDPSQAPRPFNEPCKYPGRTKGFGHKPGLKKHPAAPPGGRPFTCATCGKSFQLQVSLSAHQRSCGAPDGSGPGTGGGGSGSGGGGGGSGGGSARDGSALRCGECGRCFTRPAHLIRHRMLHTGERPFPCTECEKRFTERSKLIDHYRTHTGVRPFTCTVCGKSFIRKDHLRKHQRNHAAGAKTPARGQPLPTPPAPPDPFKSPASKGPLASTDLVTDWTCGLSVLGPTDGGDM

compound: ClCC(=O)N[C@@H]1CCCc2ccccc12; assay: log2 mean competition ratio of IA-DTB cysteine labelling (DMSO/compound) (log2 ratio); higher = stronger cysteine engagement by compound; conditions: 50 µM; treatment time: 4 h; cell line lysate: HEK293T
Method: (§1)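 IA-DTB competitive cysteine chemoproteomics in HEK293T RIPA lysate. Lysates were treated with compound 29 or 30 at 50 or 200 µM for 4 h, then IA-DTB (500 µM, 1 h), trypsin-digested, NeutrAvidin-enriched and analysed by diaPASEF. Competition ratio = intensity DMSO / intensity compound (n=4 treated, n=64 DMSO); binding: mean log2 CR ≥ 1 and p ≤ 0.05 plus QC filters. Target is the cysteine site.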

Row | Target | log2 mean competition ratio
1 | ZFAND5 C168 (UniProt O76080) | 0.0286
2 | ZMYM3 C1048 (UniProt Q14202) | 0.00215
3 | ZNF318 C2188 (UniProt Q5VUA4) | -0.139
4 | ZNF326 C360 (UniProt Q5BKZ1) | -0.182
5 | ZFYVE1 C174 (UniProt Q9HBF4) | -0.239
6 | ZNF317 C127 | 0.126
7 | ZNHIT6 C211 (UniProt Q9NWK9) | 0.0113
8 | ZC3H8 C46 (UniProt Q8N5P1) | 0.0147
9 | ZDHHC20 C131 (UniProt Q5W0Z9) | 0.0966
10 | ZFAND1 C44 (UniProt Q8TCF1) | -0.199
11 | ZNF432 C150 | -0.166
12 | ZNF35 C156 | 0.239
13 | ZNF264 C84 | -0.299
14 | ZNF516 C114 (UniProt Q92618) | -0.149
15 | ZC3HAV1 C96 (UniProt Q7Z2W4) | -0.105
16 | ZMYM1 C159 (UniProt Q5SVZ6) | -0.033
17 | ZNF512B C353 (UniProt Q96KM6) | -0.00924
18 | ZMYM4 C711 (UniProt Q5VZL5) | 0.328
19 | ZFP36L1 C173 | -0.23

Row | Target | log2 mean competition ratio
20 | ZDHHC4 C337 (UniProt Q9NPG8) | 0.264
21 | ZNF276 C136 | 0.113
22 | ZC3HC1 C149 (UniProt Q86WB0) | 0.299
23 | ZNF664 C131 | 0.41
24 | ZNF592 C463 (UniProt Q92610) | -0.0603
25 | ZNF512 C540 (UniProt Q96ME7) | -0.228
26 | ZFP30 C328 | 0.00844
27 | ZSCAN26 C169 (UniProt Q16670) | 0.14
28 | ZNF746 C385 (UniProt Q6NUN9) | 0.23
29 | ZNF574 C656 (UniProt Q6ZN55) | 0.0346
30 | ZNF106 C643 (UniProt Q9H2Y7) | -0.158
31 | ZW10 C346 (UniProt O43264) | 0.35
32 | ZNF239 C112 (UniProt Q16600) | 0.26
33 | ZFYVE16 C313 (UniProt Q7Z3T8) | -0.266
34 | ZDBF2 C1937 | -0.0486
35 | ZNF618 C619 | -0.461
36 | ZFYVE16 C863 (UniProt Q7Z3T8) | -0.442
37 | ZMYM1 C438 (UniProt Q5SVZ6) | 0.127

same assay, conditions: 200 µM; treatment time: 4 h; cell line lysate: HEK293T

Row | Target | log2 mean competition ratio
38 | ZFAND5 C168 (UniProt O76080) | 0.0731
39 | ZMYM3 C1048 (UniProt Q14202) | 0.0269
40 | ZNF318 C2188 (UniProt Q5VUA4) | 0.399
41 | ZNF326 C360 (UniProt Q5BKZ1) | -0.141
42 | ZFYVE1 C174 (UniProt Q9HBF4) | 0.0292
43 | ZNF317 C127 | 0.284
44 | ZNHIT6 C211 (UniProt Q9NWK9) | -0.06
45 | ZC3H8 C46 (UniProt Q8N5P1) | 0.404
46 | ZDHHC20 C131 (UniProt Q5W0Z9) | -0.185
47 | ZFAND1 C44 (UniProt Q8TCF1) | 0.217
48 | ZNF432 C150 | 0.0622
49 | ZNF35 C156 | -0.0906
50 | ZNF264 C84 | 0.211
51 | ZNF516 C114 (UniProt Q92618) | 0.0372
52 | ZC3HAV1 C96 (UniProt Q7Z2W4) | -0.0403
53 | ZMYM1 C159 (UniProt Q5SVZ6) | 0.00115
54 | ZNF512B C353 (UniProt Q96KM6) | -0.186
55 | ZMYM4 C711 (UniProt Q5VZL5) | 0.0841
56 | ZFP36L1 C173 | 0.0226

Row | Target | log2 mean competition ratio
57 | ZDHHC4 C337 (UniProt Q9NPG8) | 0.208
58 | ZNF276 C136 | 0.118
59 | ZC3HC1 C149 (UniProt Q86WB0) | -0.297
60 | ZNF664 C131 | -0.0166
61 | ZNF592 C463 (UniProt Q92610) | -0.0041
62 | ZNF512 C540 (UniProt Q96ME7) | -0.0905
63 | ZFP30 C328 | 0.0358
64 | ZSCAN26 C169 (UniProt Q16670) | 0.15
65 | ZNF746 C385 (UniProt Q6NUN9) | -0.1
66 | ZNF574 C656 (UniProt Q6ZN55) | -0.102
67 | ZNF106 C643 (UniProt Q9H2Y7) | -0.0661
68 | ZW10 C346 (UniProt O43264) | 0.0278
69 | ZNF239 C112 (UniProt Q16600) | -0.0804
70 | ZFYVE16 C313 (UniProt Q7Z3T8) | -0.192
71 | ZDBF2 C1937 | -0.113
72 | ZNF618 C619 | -0.0521
73 | ZFYVE16 C863 (UniProt Q7Z3T8) | 0.272
74 | ZMYM1 C438 (UniProt Q5SVZ6) | 0.0437

compound: ClCC(=O)N[C@H]1CCCc2ccccc12; assay: as above; conditions: 50 µM; treatment time: 4 h; cell line lysate: HEK293T
Method: as §1

Row | Target | log2 mean competition ratio
75 | ZFAND5 C168 (UniProt O76080) | 0.125
76 | ZMYM3 C1048 (UniProt Q14202) | 0.801
77 | ZNF318 C2188 (UniProt Q5VUA4) | -0.00826
78 | ZNF326 C360 (UniProt Q5BKZ1) | 0.158
79 | ZFYVE1 C174 (UniProt Q9HBF4) | -0.189
80 | ZNF317 C127 | -0.142
81 | ZNHIT6 C211 (UniProt Q9NWK9) | 0.0687
82 | ZC3H8 C46 (UniProt Q8N5P1) | -0.444
83 | ZDHHC20 C131 (UniProt Q5W0Z9) | -0.0298
84 | ZFAND1 C44 (UniProt Q8TCF1) | -0.369
85 | ZNF432 C150 | -0.206
86 | ZNF35 C156 | 0.0533
87 | ZNF264 C84 | -0.29
88 | ZNF516 C114 (UniProt Q92618) | -0.279
89 | ZC3HAV1 C96 (UniProt Q7Z2W4) | -0.25
90 | ZMYM1 C159 (UniProt Q5SVZ6) | 0.0436
91 | ZNF512B C353 (UniProt Q96KM6) | 0.131
92 | ZMYM4 C711 (UniProt Q5VZL5) | 0.123
93 | ZFP36L1 C173 | -0.265

Row | Target | log2 mean competition ratio
94 | ZDHHC4 C337 (UniProt Q9NPG8) | 0.332
95 | ZNF276 C136 | -0.129
96 | ZC3HC1 C149 (UniProt Q86WB0) | 0.386
97 | ZNF664 C131 | 0.251
98 | ZNF592 C463 (UniProt Q92610) | 0.0611
99 | ZNF512 C540 (UniProt Q96ME7) | -0.19
100 | ZFP30 C328 | -0.0241
101 | ZSCAN26 C169 (UniProt Q16670) | 0.194
102 | ZNF746 C385 (UniProt Q6NUN9) | -0.0987
103 | ZNF574 C656 (UniProt Q6ZN55) | -0.213
104 | ZNF106 C643 (UniProt Q9H2Y7) | 0.334
105 | ZW10 C346 (UniProt O43264) | 0.539
106 | ZNF239 C112 (UniProt Q16600) | -0.0552
107 | ZFYVE16 C313 (UniProt Q7Z3T8) | 0.199
108 | ZDBF2 C1937 | 0.24
109 | ZNF618 C619 | -0.246
110 | ZFYVE16 C863 (UniProt Q7Z3T8) | 0.164
111 | ZMYM1 C438 (UniProt Q5SVZ6) | 0.355
